Assay results published in patent publication US6974863 (INDIANA UNIVERSITY RESEARCH AND TECHNOLOGY, dated 2005).
No constants are given. Whether binding was seen depends on the method and setting. Binding seen in cells or lysates may run through a third protein. Some entries that bind do so weakly or less than the wild type.

The chains behind the UniProt entries cited, without tags or fusion partners. Where a name states a change or a piece, a line headed by the entry shows the natural chain unless it says otherwise. Residues count along the entry.
UniProt P06240, residues 2-509: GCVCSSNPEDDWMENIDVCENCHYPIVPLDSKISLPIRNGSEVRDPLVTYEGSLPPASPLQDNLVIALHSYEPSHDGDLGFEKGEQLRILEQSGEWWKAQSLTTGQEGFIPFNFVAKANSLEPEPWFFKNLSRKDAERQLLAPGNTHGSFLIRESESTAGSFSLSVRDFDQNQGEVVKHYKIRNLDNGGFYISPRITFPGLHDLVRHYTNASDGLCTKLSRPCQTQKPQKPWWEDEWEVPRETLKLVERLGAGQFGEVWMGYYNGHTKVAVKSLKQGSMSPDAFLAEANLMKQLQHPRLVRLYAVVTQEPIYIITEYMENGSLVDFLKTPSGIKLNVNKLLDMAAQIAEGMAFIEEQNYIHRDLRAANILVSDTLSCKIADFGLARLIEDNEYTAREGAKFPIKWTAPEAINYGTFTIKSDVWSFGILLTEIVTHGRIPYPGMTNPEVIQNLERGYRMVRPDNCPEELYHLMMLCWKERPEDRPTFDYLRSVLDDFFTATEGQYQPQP
UniProt P20334: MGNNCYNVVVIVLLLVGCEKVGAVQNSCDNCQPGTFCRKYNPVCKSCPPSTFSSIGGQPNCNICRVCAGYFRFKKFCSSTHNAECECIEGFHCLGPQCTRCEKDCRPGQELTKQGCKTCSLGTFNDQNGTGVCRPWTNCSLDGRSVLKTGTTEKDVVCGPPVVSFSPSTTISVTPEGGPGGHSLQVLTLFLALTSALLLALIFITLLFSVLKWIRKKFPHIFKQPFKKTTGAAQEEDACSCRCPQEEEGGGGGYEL

What was measured:
[1] = target: murine protein tyrosine kinase p56lck (wild type) (murine) (UniProt P06240); test: coimmunoprecipitation with 53A2 from Sf-21 cells coexpressing both, in vitro kinase labeling
[2] = target: murine protein tyrosine kinase p56lck (wild type) (murine) (UniProt P06240); test: coimmunoprecipitation with 53A2
[3] = target: murine protein tyrosine kinase p56lck (wild type) (murine) (UniProt P06240); test: coimmunoprecipitation with 53A2 from CTLL-2 lysate, in vitro kinase labeling
[4] = target: murine protein tyrosine kinase p56lck (wild type) (murine) (UniProt P06240); test: coimmunoprecipitation with 53A2, in vitro kinase labeling, V8 protease peptide mapping
[5] = target: murine protein tyrosine kinase p56lck (wild type) (murine) (UniProt P06240); test: coimmunoprecipitation with 53A2 from HeLa cells, in vitro kinase labeling

Measured: binding

mouse receptor protein 4-1BB (full length) (from UniProt P20334 24-256)
binds: [1] | [2] | [3] | [4] | [5]
